Reference: US20230110249A1 (University of California, published 2023)
These are yes or no findings as the source states them, for the method shown. Some binding calls cover weakened binding; strength is not graded here.

The chains behind the UniProt entries cited, without tags or fusion partners. Residues count along the entry.
UniProt Q01973, residues 30-406: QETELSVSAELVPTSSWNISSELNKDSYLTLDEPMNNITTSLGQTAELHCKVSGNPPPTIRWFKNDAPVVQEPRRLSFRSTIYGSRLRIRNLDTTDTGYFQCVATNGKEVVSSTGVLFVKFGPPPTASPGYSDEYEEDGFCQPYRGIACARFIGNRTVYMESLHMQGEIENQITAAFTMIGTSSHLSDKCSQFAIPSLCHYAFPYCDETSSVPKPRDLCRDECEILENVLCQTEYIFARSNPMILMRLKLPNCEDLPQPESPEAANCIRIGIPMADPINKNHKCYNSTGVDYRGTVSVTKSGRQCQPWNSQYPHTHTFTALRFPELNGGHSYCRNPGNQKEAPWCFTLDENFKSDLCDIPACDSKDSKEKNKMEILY

Key:
[1] = target: T1, R22 peptide conjugated to keyhole limpet hemocyanin; assay: binding to KLH-conjugated peptide (FIG. 21)
T1 sequence (peptide, C-terminal cysteine conjugated to keyhole limpet hemocyanin (KLH) with MBS): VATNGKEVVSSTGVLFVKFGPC

[2] = target: recombinant human ROR1 extracellular domain (human) (UniProt Q01973); assay: immunoblot, non-denaturing PAGE and SDS-PAGE (FIG. 11)
R22 peptide = target: T2, R22 peptide; assay: peptide binding (FIG. 21)
T2 sequence (peptide): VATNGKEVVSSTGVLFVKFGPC

[3] = target: recombinant human ROR1 extracellular domain (human) (UniProt Q01973); assay: immunoblot, non-denaturing PAGE and SDS PAGE (FIG. 11)
[4] = target: human ROR1 protein (construct not stated) (human) (UniProt Q01973); assay: native western (FIG. 10)

binding [1]: binds | binding [2]: binds | binding (R22 peptide): binds | binding [3]: binds | binding [4]: binds
B1: anti-human ROR1 antibody 99961 (antibody, V domains shown)
VH: EIQLQQSGPVLVKPGASVKVSCKASGYAFTAYNIHWVRQSHGKRLEWIGSFDPYDGGSSYNQKFKDKATLTVDKSSTTAYMHLNSLTSEDSAVYYCARGWYYFDYWGHGTTLTVSS
VL: DVQITQSPSYLAASPGETITINCRASKSISKYLAWYQEKPGKTNKLLIYSGSTLQSGIPSRFRGSGSGTDFTLTISSLEPEDFAMYYCQQHDESPYTFGEGTKLEIK
notes: also called Ab9991
